According to paper PMC9646525, “Cryo-EM structure of the SEA complex” (Nature, 2022):

T1: Sea3 (S. cerevisiae (endogenous in yeast cells)) (UniProt Q03897)
T1 sequence: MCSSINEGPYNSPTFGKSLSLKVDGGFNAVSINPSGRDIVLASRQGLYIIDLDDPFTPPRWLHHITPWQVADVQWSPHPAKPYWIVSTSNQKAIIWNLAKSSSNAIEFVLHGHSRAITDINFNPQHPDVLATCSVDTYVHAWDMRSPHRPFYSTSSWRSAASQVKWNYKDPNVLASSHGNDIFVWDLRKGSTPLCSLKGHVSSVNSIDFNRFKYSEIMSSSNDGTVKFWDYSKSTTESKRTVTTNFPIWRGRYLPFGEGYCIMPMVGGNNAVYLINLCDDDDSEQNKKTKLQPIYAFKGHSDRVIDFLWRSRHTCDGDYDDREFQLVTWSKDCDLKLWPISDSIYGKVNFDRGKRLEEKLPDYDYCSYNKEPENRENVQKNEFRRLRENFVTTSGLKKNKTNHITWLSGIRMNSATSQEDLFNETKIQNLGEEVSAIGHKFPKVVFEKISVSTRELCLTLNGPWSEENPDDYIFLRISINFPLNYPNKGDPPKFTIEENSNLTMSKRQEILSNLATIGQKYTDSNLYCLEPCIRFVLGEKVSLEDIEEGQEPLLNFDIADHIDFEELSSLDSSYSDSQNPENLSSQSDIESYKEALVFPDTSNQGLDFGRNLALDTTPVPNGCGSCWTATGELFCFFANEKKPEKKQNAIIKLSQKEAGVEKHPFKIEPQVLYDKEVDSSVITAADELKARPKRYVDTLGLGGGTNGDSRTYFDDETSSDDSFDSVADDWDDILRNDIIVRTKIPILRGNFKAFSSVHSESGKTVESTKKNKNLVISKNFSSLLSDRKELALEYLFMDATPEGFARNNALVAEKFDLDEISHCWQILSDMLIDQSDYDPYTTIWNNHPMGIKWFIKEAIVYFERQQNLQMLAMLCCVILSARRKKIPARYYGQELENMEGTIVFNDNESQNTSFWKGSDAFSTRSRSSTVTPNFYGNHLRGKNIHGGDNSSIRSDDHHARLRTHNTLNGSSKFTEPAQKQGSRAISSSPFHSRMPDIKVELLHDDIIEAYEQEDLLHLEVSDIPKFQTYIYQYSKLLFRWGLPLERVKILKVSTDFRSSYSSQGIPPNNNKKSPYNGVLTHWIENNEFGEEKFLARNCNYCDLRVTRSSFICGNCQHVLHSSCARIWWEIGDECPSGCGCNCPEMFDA

T2: Sea4-TAP (S. cerevisiae (endogenous in yeast cells)) (UniProt P38164)
T2 sequence: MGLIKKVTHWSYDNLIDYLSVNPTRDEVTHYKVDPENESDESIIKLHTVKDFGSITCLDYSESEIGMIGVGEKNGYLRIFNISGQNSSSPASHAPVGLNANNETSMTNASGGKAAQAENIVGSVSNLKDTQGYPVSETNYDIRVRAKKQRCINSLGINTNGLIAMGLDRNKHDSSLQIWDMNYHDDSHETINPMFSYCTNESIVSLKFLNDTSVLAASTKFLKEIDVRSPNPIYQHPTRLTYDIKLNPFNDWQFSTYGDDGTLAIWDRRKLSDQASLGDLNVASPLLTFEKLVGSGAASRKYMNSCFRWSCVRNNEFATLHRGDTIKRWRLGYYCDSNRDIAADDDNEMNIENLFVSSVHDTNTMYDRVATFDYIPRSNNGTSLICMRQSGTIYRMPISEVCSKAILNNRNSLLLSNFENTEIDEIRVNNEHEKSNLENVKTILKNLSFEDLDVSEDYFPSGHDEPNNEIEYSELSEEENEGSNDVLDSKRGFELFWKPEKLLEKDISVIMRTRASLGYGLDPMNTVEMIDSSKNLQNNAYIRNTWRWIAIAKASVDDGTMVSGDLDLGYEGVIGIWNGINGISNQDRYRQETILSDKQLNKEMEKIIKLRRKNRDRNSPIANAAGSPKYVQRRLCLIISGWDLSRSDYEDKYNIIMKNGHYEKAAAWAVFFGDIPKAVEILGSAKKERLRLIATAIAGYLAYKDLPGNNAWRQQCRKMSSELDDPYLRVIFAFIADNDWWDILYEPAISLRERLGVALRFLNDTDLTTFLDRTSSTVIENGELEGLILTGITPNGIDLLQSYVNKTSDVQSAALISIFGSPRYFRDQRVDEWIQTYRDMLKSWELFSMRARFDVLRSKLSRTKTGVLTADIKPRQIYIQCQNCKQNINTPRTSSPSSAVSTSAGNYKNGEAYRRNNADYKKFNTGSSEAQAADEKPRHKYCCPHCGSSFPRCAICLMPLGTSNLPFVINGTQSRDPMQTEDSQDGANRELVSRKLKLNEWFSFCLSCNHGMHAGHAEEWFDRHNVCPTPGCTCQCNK

B1: Npr2 (natural protein, UniProt P39923 1-615, looked up)
chain: MLSYFQGFVPIHTIFYSVFHPTEGSKIKYEFPPNNLKNHGINFNTFKNYIIPKPILCHKLITFKYGTYRIVCYPVTINSPIYARNFFSFNFVFVFPYDCETSPYEPAITRLGKMFKVLEEQNQLLSKSERDPVFFDLKVLENSTTTPSTAGPSSTPNPSSNTTPTHPTSEKDTKDMRSSRYSDLIKDLGLPQSAFSIQDLLMRIFQDLNNYSECLIPIDEGNAVDIKIFPLLRPPTTCVSLEDVPLSSVNLKKIIDVNWDPTMMSIVPYIDGLNSIAKISKLSNSDPGLVIECIRHLIYYKCVTLSDIFQFSNIYAPSSLIRNFLTDPLMASDCQSYVTFPEVSKISNLPLNKSLGSGDQDSPSFSVRRKSKSSSIPSNPDSRTTSFSSTSRVSQNSSLNSSFSSIYKDWRQSQTSCSSSNIHVINNRNRFLPTRSCLFDLYRSLSQGQTLKTWYESKYMILKENNIDIRRFITFGLEKRIIYRCYSFPVMINAGSREPKEMTPIITKDLVNNDKLLEKRNHNHLLSATGSRNTAQSGNLKPERPSKVSFEMQRVSSLATGKSTMPKLSDEEEGILEESIRNAETFDKICVLLSKPKLEVESYLNELGEFKVINS
notes: Npr2, S. cerevisiae, endogenous subunit of the SEAC (SEACIT, wing); Native protein of the purified complex; two copies in the SEAC; source: endogenous, yeast cells expressing Sea4-TAP or Sea1-TAP; in lysate and co-purified with the tagged subunit (IgG Dynabeads, TEV elution)

Assays:
Test in all cases: cryo-EM structure; endogenous SEAC purified from yeast via Sea4-TAP (IgG Dynabeads, TEV elution in 20 mM HEPES-NaOH pH 7.4, 300 mM NaCl, 2 mM DTT), on graphene-oxide-coated grids; both purified
[1] = biological target: T1, Sea3 (S. cerevisiae (endogenous in yeast cells))
[2] = biological target: T2, Sea4-TAP (S. cerevisiae (endogenous in yeast cells))
[3] = biological target: Npr3 (S. cerevisiae (endogenous in yeast cells))

Row | Molecule | binding [1] | binding [2] | binding [3]
1 | Npr3 | binds | binds | 
2 | B1 |  |  | binds

No constants are given. Whether binding was seen depends on the method and setting. A result given as binding can be weak or reduced; the word gives no strength.
